Source: PubChem BioAssay AID330 (DTP/NCI, 2004)
The list shows only some results of the screen, not a fair sample: it is rich in T/C values a quarter to a half above the control, in often repeated tests (any T/C) and in doses without a T/C. Further doses and runs are listed elsewhere. T/C gives the treated animals as a percentage of the vehicle group. Some doses have a count of surviving animals in place of a T/C: the source holds a T/C of zero for them, seemingly a mark for toxic or unscored doses. Some survivor counts are full or nearly so, which does not show that the dose was tolerated: the source hardly ever lists a survival T/C far under the control, and the zero likely stands for such cases as well. Counts of survivors are from the toxicity check (mostly the fifth day) where no day follows; animals may have died later. Schedules are NCI's codes, read here as Q, the interval in days (D) or hours (H), X, the number of doses. Some entries hold several experiments; the values are given in rising order. Additions like (4×) give the number of equal values in this list. Where survival is the endpoint, this PubChem deposit counts one and a half times the control or more as active, and values a quarter to a half above the control carry no call in these data; other NCI protocols may use other cut-offs. Some T/C values carry the count of animals alive at the toxicity check (mostly the fifth day); where none is given, no animal had died by that day.

System: P388 leukemia ip, CD2F1 mice, survival T/C
Test: NCI In Vivo Anticancer Drug Screen. Data for tumor model P388 Leukemia (intraperitoneal) in CD2F1 (CDF1) mice
Settings: T/C endpoint: median survival time, higher T/C = longer survival
[1] = dose: 25.0 mg/kg/injection, schedule: Q01DX009 (ip), vehicle: distilled water + Tween-80
[2] = dose: 50.0 mg/kg/injection, schedule: Q01DX009 (ip), vehicle: distilled water + Tween-80
[3] = dose: 200.0 mg/kg/injection, schedule: Q01DX005 (ip), vehicle: saline with Tween-80
[4] = dose: 240.0 mg/kg/injection, schedule: Q01DX005 (ip), vehicle: saline with Tween-80
[5] = dose: 50.0 mg/kg/injection, schedule: Q04DX003 (ip), vehicle: water
[6] = dose: 200.0 mg/kg/injection, schedule: Q01DX005 (ip), vehicle: Klucel (hydroxypropylcellulose) (HPC)
[7] = dose: 100.0 mg/kg/injection, schedule: Q01DX005 (ip), vehicle: Klucel (hydroxypropylcellulose) (HPC)
[8] = dose: 25.0 mg/kg/injection, schedule: Q01DX009 (ip), vehicle: Klucel (hydroxypropylcellulose) (HPC)
[9] = dose: 50.0 mg/kg/injection, schedule: Q01DX009 (ip), vehicle: Klucel (hydroxypropylcellulose) (HPC)
[10] = dose: 100.0 mg/kg/injection, schedule: Q01DX009 (ip), vehicle: Klucel (hydroxypropylcellulose) (HPC)
[11] = dose: 200.0 mg/kg/injection, schedule: Q01DX009 (ip), vehicle: Klucel (hydroxypropylcellulose) (HPC)
[12] = dose: 100.0 mg/kg/injection, schedule: Q01DX009 (ip), vehicle: saline
[13] = dose: 200.0 mg/kg/injection, schedule: Q01DX009 (ip), vehicle: saline

SMILES: ONc1ncnc2nc[nH]c12
- T/C (dose: 25.0 mg/kg/injection, schedule: Q04DX003 (ip), vehicle: saline sonified): 125 % of control
- T/C (dose: 33.0 mg/kg/injection, schedule: Q04DX003 (ip), vehicle: saline with Tween-80): 127 % of control
- T/C (dose: 50.0 mg/kg/injection, schedule: Q04DX003 (ip), vehicle: saline sonified): 141 % of control
- T/C (dose: 75.0 mg/kg/injection, schedule: Q04DX003 (ip), vehicle: saline with Tween-80): 127 % of control
- T/C (dose: 100.0 mg/kg/injection, schedule: Q04DX003 (ip), vehicle: saline sonified): 133 % of control

SMILES: CCOc1c(N=Nc2ccccc2[N+](=O)[O-])c(C)nn1C(=S)SC
- survivor count (dose: 60.0 mg/kg/injection, schedule: Q01DX005 (ip), vehicle: Klucel (hydroxypropylcellulose) (HPC)): 0 of 6
- survivor count (dose: 120.0 mg/kg/injection, schedule: Q01DX005 (ip), vehicle: Klucel (hydroxypropylcellulose) (HPC)): 0 of 6
- survivor count (dose: 240.0 mg/kg/injection, schedule: Q01DX005 (ip), vehicle: Klucel (hydroxypropylcellulose) (HPC)): 0 of 6

SMILES: CCO/C=N/NS(=O)(=O)c1ccc(C)cc1
- T/C [1]: 127 % of control
- survivor count (dose: 25.0 mg/kg/injection, schedule: Q01DX009 (ip), vehicle: other): 6 of 6
- T/C [2]: 131 % of control
- survivor count (dose: 400.0 mg/kg/injection, schedule: Q01DX009 (ip), vehicle: other): 6 of 6

SMILES: O=C(O)c1c(Cl)c(Cl)c(Cl)c(Cl)c1-c1c2cc(Br)c(=O)c(Br)c-2oc2c(Br)c(O)c(Br)cc12
- survivor count [3]: 2 of 5

SMILES: [Se]=P(N1CC1)(N1CC1)N1CC1
- survivor count (dose: 55.0 mg/kg/injection, schedule: Q01DX001 (ip), vehicle: Klucel (hydroxypropylcellulose) (HPC)): 0 of 6

SMILES: OC(/C=C/c1ccccc1)Cc1nc2ccccc2[nH]1 (stereo not given)
- survivor count [4]: 6 of 6

SMILES: Clc1nc2nc(Cl)c(Cl)n2nc1Cl
- survivor count (dose: 100.0 mg/kg/injection, schedule: Q04DX002 (ip), vehicle: saline with Tween-80): 1 of 6
- survivor count (dose: 200.0 mg/kg/injection, schedule: Q04DX002 (ip), vehicle: saline with Tween-80): 0 of 6
- survivor count (dose: 400.0 mg/kg/injection, schedule: Q04DX002 (ip), vehicle: saline with Tween-80): 0 of 6

SMILES: NC(Cc1csc2ccc(Cl)cc12)C(=O)O (stereo not given)
- survivor count (dose: 200.0 mg/kg/injection, schedule: Q01DX001 (ip), vehicle: Klucel (hydroxypropylcellulose) (HPC)): 2 of 6

SMILES: N#[O+].O.O=N[O-].O=N[O-].O=N[O-].O=N[O-].[Ru]
- T/C (dose: 12.5 mg/kg/injection, schedule: Q04DX003 (ip), vehicle: water): 92, 104, 105, 125 % of control
- T/C (dose: 25.0 mg/kg/injection, schedule: Q04DX003 (ip), vehicle: water): 105, 106, 116, 122 % of control
- T/C [5]: 105 [5 of 6 alive], 112, 131 % of control
- survivor count [5]: 6 of 6
- survivor count (dose: 100.0 mg/kg/injection, schedule: Q04DX003 (ip), vehicle: water): 2 of 6 (2×) and 4 of 6
- survivor count (dose: 200.0 mg/kg/injection, schedule: Q04DX003 (ip), vehicle: water): 0 of 6

SMILES: CC(=O)O[Si](C)(OC(C)=O)c1ccccc1
- survivor count (dose: 50.0 mg/kg/injection, schedule: Q01DX009 (ip), vehicle: other): 6 of 6
- survivor count (dose: 100.0 mg/kg/injection, schedule: Q01DX009 (ip), vehicle: other): 6 of 6
- survivor count (dose: 200.0 mg/kg/injection, schedule: Q01DX009 (ip), vehicle: other): 5 of 6

SMILES: COc1cc(C2SCC(=O)N2c2nnc(C(F)(F)F)s2)cc(OC)c1OC (stereo not given)
- survivor count [4]: 6 of 6

SMILES: O=C(CNC(=O)NCc1ccco1)N/N=C/c1ccccc1O
- survivor count (dose: 200.0 mg/kg/injection, schedule: Q01DX009 (ip), vehicle: saline with Tween-80): 4 of 6

SMILES: O=C1c2ccc(Cl)cc2OCCC1CN1CCCCC1 (stereo not given)
- survivor count (dose: 400.0 mg/kg/injection, schedule: Q04DX003 (ip), vehicle: saline): 0 of 6

SMILES: CCN(CC)CCOC(=O)C(OCCCc1ccccc1)(c1ccccc1)c1ccccc1
- survivor count [6]: 4 of 6

SMILES: Cc1ccc(NCCNCC(O)CO)c2c(=O)c3ccccc3sc12 (stereo not given)
- T/C (dose: 50.0 mg/kg/injection, schedule: Q01DX005 (ip), vehicle: Klucel (hydroxypropylcellulose) (HPC)): 140 % of control
- survivor count [7]: 1 of 5
- survivor count (dose: 100.0 mg/kg/injection, schedule: Q01DX005 (ip), vehicle: saline): 1 of 5
- survivor count (dose: 200.0 mg/kg/injection, schedule: Q01DX005 (ip), vehicle: saline): 0 of 5

SMILES: O=[N+]([O-])c1ccc(-c2nc3ncncc3[nH]2)cc1
- survivor count [8]: 1 of 6
- survivor count [9]: 1 of 6
- survivor count [10]: 1 of 6
- survivor count [11]: 0 of 6

SMILES: Cc1c(O)c2c(c(O)c1Cc1ccc(C#N)cc1)C(=O)c1ccccc1C2=O
- survivor count (dose: 12.5 mg/kg/injection, schedule: Q01DX009 (ip), vehicle: Klucel (hydroxypropylcellulose) (HPC)): 6 of 6
- survivor count [8]: 6 of 6
- survivor count [9]: 6 of 6
- survivor count [10]: 6 of 6

SMILES: O=C(CC(=O)c1ccc(Cl)s1)C(=O)NC1C2CC3CC(C2)CC1C3 (stereo not given)
- survivor count (dose: 15.0 mg/kg/injection, schedule: Q01DX005 (ip), vehicle: saline with Tween-80): 6 of 6
- survivor count (dose: 120.0 mg/kg/injection, schedule: Q01DX005 (ip), vehicle: saline with Tween-80): 3 of 6
- survivor count [4]: 0 of 6

SMILES: ClCC[N+]12CC[N+](CCCl)(CC1)C2.[Cl][Pt]([Cl])([Cl])[Cl]
- T/C (dose: 6.25 mg/kg/injection, schedule: Q01DX009 (ip), vehicle: distilled water + Tween-80): 131 % of control [5 of 6 alive]
- T/C (dose: 12.5 mg/kg/injection, schedule: Q01DX009 (ip), vehicle: distilled water + Tween-80): 131 and 133 % of control
- survivor count [1]: 5 of 6
- survivor count [2]: 0 of 6 and 1 of 6
- survivor count (dose: 100.0 mg/kg/injection, schedule: Q01DX009 (ip), vehicle: distilled water + Tween-80): 1 of 6

SMILES: O=S(=O)(F)c1ncc2[nH]cnc2n1
- survivor count [3]: 0 of 6

SMILES: CN(C)CCCN1c2ccccc2Sc2ccc(F)cc21
- survivor count [12]: 1 of 6
- survivor count [13]: 0 of 6

SMILES: CC(=O)Nc1ccc(Cl)cc1C(O)c1ccccc1 (stereo not given)
- survivor count [7]: 1 of 6
- survivor count [6]: 0 of 6

SMILES: CCC[As](CCC)SC1OC(COC(C)=O)C(OC(C)=O)C(OC(C)=O)C1OC(C)=O (stereo not given)
- survivor count (dose: 400.0 mg/kg/injection, schedule: Q01DX009 (ip), vehicle: saline with Tween-80): 0 of 6

SMILES: O=C(Nc1ccc(Cl)cc1)Nc1nnc(/C=C/c2ccccc2)o1
- survivor count [4]: 6 of 6

SMILES: COc1ccc(/C=C2\SC(=S)N(C3CC3)C2=O)cc1OC
- survivor count [6]: 5 of 5

SMILES: CCOC(=O)[C]1([Sn]([CH3])([CH3])[CH3])N=NC(C(=O)OC)=C1C(=O)OC (stereo not given)
- survivor count (dose: 3.12 mg/kg/injection, schedule: Q01DX009 (ip), vehicle: saline): 6 of 6
- survivor count (dose: 6.25 mg/kg/injection, schedule: Q01DX009 (ip), vehicle: saline): 1 of 6
- survivor count (dose: 12.5 mg/kg/injection, schedule: Q01DX009 (ip), vehicle: saline): 0 of 6
- survivor count (dose: 25.0 mg/kg/injection, schedule: Q01DX009 (ip), vehicle: saline): 0 of 6
- survivor count (dose: 50.0 mg/kg/injection, schedule: Q01DX009 (ip), vehicle: saline): 0 of 6
- survivor count [12]: 0 of 6
- survivor count [13]: 0 of 6

SMILES: CCOC(=O)NCNC(=O)OCC
- T/C [11]: 128 % of control

SMILES: COc1ccc(-c2cc(C(=O)Nc3cc(C(F)(F)F)cc(C(F)(F)F)c3)c3ccccc3n2)cc1
- survivor count (dose: 800.0 mg/kg/injection, schedule: Q01DX005 (ip), vehicle: DMSO): 6 of 6

SMILES: CC(=O)NC1C([Se][As](C)C)OC(COC(C)=O)C(OC(C)=O)C1OC(C)=O (stereo not given)
- T/C (dose: 25.0 mg/kg/injection, schedule: Q01DX009 (ip), vehicle: saline with Tween-80): 127 % of control
